Assay results: article PMC7252619 (PLoS ONE, 2020)

Key:
[1] = tested on: human PBMCs (responder cells) with RPMI1788 stimulator cells; test: Mixed Lymphocyte Reaction (MLR, T cell assay), 3H-thymidine incorporation; assay type: cell-based; details: for T/B-cell SI: ratio IC50 MLR assay/IC50 B-cell assay
[2] = tested on: Jurkat cells; test: WST-1 cytotoxicity assay on Jurkat cells (T-cell line); assay type: cell-based, human; details: for T-cell TI: ratio IC50 WST-1 assay Jurkat/IC50 B-cell assay; for Therapeutic Index (TI) WST-1 Jurkat/ B-cell: ratio of IC50 values
[3] = tested on: RPMI1788 cells; test: WST-1 cytotoxicity assay on RPMI1788 cells (B-cell line); assay type: cell-based, human; details: for B-cell TI: ratio IC50 WST-1 assay RPMI1788/IC50 B-cell assay; for Therapeutic Index (TI) WST-1 RPMI 1788/B-cell: ratio of IC50 values

Compound	T/B-cell SI [1]	T-cell TI [2]	Therapeutic Index (TI) WST-1 Jurkat/ B-cell [2]	B-cell TI [3]	Therapeutic Index (TI) WST-1 RPMI 1788/B-cell [3]	Selectivity Index (SI) MLR/B-cell ([1]; ratio of IC50 values)
C[C@]12CC[C@@H]3c4ccc(O)cc4CC[C@H]3[C@@H]1CC[C@@H]2O [Estradiol, reference compound]	0,62	0,58	0.58	1,06	1.06	–
CCN(CC)Cc1cc(Nc2ccnc3cc(Cl)ccc23)ccc1O [Amodiaquine]	14,73	39,43	39.43	42,33	42.33	–
Cc1ccc(C(=O)Nc2ccc(S(=O)(=O)O)c3cc(S(=O)(=O)O)cc(S(=O)(=O)O)c23)cc1NC(=O)c1cccc(NC(=O)Nc2cccc(C(=O)Nc3cc(C(=O)Nc4ccc(S(=O)(=O)O)c5cc(S(=O)(=O)O)cc(S(=O)(=O)O)c45)ccc3C)c2)c1 [Suramin]	0,84	>1,42	>1.42	>1,42	>1.42	–
CN1CCN(CCCN2c3ccccc3Sc3ccc(Cl)cc32)CC1 [Prochlorperazine, reference compound]	–	–	–	1,67	–	–
Oc1cc(Cl)ccc1Oc1ccc(Cl)cc1Cl [Triclosan, reference compound]	1.64	1,25	1.25	1.32	1.32	–
C[C@@H]1CCN(C(=O)CC#N)C[C@@H]1N(C)c1ncnc2[nH]ccc12 [Tofacitinib]	–	>115,6	–	–	–	–
COc1c(C)c2c(c(O)c1C/C=C(\C)CCC(=O)OCCN1CCOCC1)C(=O)OC2 [Mycophenolate Mofetyl]	–	–	0.76	–	0.67	0.17
N[C@@H](Cc1cc(I)c(Oc2cc(I)c(O)c(I)c2)c(I)c1)C(=O)O [Thyroxine, reference compound]	>1,47	–	>1.47	–	>1.47	–
CC/C(=C(/CC)c1ccc(O)cc1)c1ccc(O)cc1 [Diethylstilbestrol, reference compound]	–	0,22	–	1,01	–	–
Nc1ncnc2c1ncn2[C@@H]1O[C@H](CO)[C@@H](O)[C@H]1O [Adenosine, reference compound]	1,00	1,00	1	1,00	1	–
NC(=O)c1cccnc1 [Niacinamide, reference compound]	1,00	1,00	1	1,00	1	–
Cc1nc(Nc2ncc(C(=O)Nc3c(C)cccc3Cl)s2)cc(N2CCN(CCO)CC2)n1 [Dasatinib, reference compound]	–	160,0	–	–	–	–
Cc1cc(C#N)cc(C)c1Oc1nc(Nc2ccc(C#N)cc2)nc(N)c1Br [Etravirine]	1,23	5,15	5.15	1,35	1.35	–
C=CC(=O)N1CCC[C@@H](n2nc(-c3ccc(Oc4ccccc4)cc3)c3c(N)ncnc32)C1 [Ibrutinib, reference compound]	–	81090	–	3856	–	–
Nc1ccc2cc3ccc(N)cc3nc2c1 [Proflavine]	7,50	8,55	8.55	5,14	5.14	–
Oc1c(Cl)cc(Cl)c(Cl)c1Cc1c(O)c(Cl)cc(Cl)c1Cl [Hexachlorophene, reference compound]	–	1,10	–	0,79	–	–
N[C@@H](Cc1cc(I)c(Oc2ccc(O)c(I)c2)c(I)c1)C(=O)O [Triiodothyronine]	–	>1,36	–	>1,36	–	–
